# Laboratory results taken from patent publication US10513723B2, “Decreasing ornithine production to decrease high mannose glycoform content of recombinant proteins” (AMGEN INC., priority 2014, dated 2019).
# System: Cell line H (CHO cells expressing recombinant antibody)
# Assay: Small scale mock perfusion, % high mannose (HILIC glycan map) of the expressed recombinant glycoprotein
# Assay type: cell-based, Chinese hamster
# Conditions: L-ornithine monohydrochloride 14.8, 6, 0.6 and 0 (control) mM in perfusion medium; FIG. 7
# Method: Cell lines H was used in this study. Cells were maintained in 3 L Erlenmeyer shake flasks (Corning Life Sciences, Lowell, Mass.) with 1 L working volume and cultivated under standard humidified condition at 36° C., 5% CO2, and shaken at 70 rpm in an automatic CO2 incubator (Thermo Fisher Scientific, Waltham, Mass.). Cells were sub-cultured in a selective growth media containing a 500 nM concentration of methotrexate (MTX) every four days, and subsequently transferred, inoculated and cultured in a growth media for four days before being seeded in a 24 wells plate for the experiments described below. […] Different N-glycan species of antibodies were analyzed by hydrophilic-interaction liquid chromatography (HILIC). The purified antibodies were digested by N-glycosidase F (New England BioLabs, Ipswich, Mass.) at 37° C. for 2 hours to release the glycans. The released glycans were labeled with 2-aminobenzoic acid and cleaned up using GlycoClean S cartridges (Prozyme, […], Calif.). Purified glycans were then desalted and reconstituted in water for assay. HILIC chromatography was performed with a 100 mm×2.1 mm i.d BEH Glycan column using UPLC (Waters Corporation, Milford, Mass.) and the eluted glycans were detected, identified, and qualified by a fluorescence detector based on different elution times of different glycans.
structure (smiles),measurement,value
"Cl.NCCC[C@H](N)C(=O)O [ornithine, L-ornithine monohydrochloride]",% HMN (high mannose glycoform content),"as the ornithine concentration was increased, the % HMN increased"
